Experimental data from doi:10.1101/767202.
These are yes or no findings as the source states them, for the method shown. Binding seen in cells or lysates may run through a third protein. Some results given as binding are weak or reduced against the parent protein; the word gives no strength. For part of these data: Sequences can lack the tags named with a protein.

By UniProt entry, the sequences of proteins in these tests, tags left out.
UniProt P51114: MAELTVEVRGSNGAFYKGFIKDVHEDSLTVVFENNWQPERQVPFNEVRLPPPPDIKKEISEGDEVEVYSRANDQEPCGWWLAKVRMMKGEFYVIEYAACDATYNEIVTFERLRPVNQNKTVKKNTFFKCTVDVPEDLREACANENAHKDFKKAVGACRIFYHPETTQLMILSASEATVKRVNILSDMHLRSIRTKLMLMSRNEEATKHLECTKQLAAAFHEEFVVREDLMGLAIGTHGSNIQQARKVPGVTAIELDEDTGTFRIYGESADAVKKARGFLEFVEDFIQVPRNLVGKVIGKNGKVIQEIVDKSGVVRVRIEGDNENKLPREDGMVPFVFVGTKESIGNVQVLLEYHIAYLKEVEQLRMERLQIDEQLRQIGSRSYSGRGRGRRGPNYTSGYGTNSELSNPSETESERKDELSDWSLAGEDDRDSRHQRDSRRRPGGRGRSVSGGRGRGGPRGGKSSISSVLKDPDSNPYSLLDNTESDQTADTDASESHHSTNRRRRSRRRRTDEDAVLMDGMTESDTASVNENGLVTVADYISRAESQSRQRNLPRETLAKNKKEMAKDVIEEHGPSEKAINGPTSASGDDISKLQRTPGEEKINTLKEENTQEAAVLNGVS

Tests used:
[1] = biological target: T1, 3xGFP-Nup85 (UniProt Q9BW27); assay: co-IP
T1 sequence: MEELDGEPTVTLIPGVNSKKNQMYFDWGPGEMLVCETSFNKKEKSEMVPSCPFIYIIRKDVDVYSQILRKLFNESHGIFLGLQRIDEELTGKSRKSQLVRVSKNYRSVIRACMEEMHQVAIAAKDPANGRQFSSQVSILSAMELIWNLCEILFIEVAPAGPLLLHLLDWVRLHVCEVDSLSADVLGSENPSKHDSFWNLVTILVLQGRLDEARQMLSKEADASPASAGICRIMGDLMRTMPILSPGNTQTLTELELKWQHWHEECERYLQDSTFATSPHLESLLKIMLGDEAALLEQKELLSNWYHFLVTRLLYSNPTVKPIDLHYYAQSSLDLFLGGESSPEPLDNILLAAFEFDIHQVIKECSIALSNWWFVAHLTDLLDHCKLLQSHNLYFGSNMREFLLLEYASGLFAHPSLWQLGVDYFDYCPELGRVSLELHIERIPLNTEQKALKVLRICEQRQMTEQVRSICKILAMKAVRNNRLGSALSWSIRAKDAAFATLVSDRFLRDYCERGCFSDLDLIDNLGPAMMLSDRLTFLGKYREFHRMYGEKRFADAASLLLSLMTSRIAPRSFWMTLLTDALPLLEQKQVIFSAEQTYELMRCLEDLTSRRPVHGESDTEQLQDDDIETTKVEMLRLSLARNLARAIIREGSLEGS

[2] = biological target: FXR1 (endogenous, HEK293T) (human (endogenous in HEK293T)) (UniProt P51114); assay: co-IP

## FXR1 (endogenous, HeLa) (from UniProt P51114 1-621)
[1]
  binding: binds

B1: Nup85 (endogenous, HEK293T) (protein, UniProt Q9BW27 1-656)
chain: T1 sequence
[2]
  binding: binds

B2: Nup133 (endogenous, HEK293T) (protein, UniProt Q8WUM0 1-1156)
chain: MFPAAPSPRTPGTGSRRGPLAGLGPGSTPRTASRKGLPLGSAVSSPVLFSPVGRRSSLSSRGTPTRMFPHHSITESVNYDVKTFGSSLPVKVMEALTLAEVDDQLTINIDEGGWACLVCKEKLIIWKIALSPITKLSVCKELQLPPSDFHWSADLVALSYSSPSGEAHSTQAVAVMVATREGSIRYWPSLAGEDTYTEAFVDSGGDKTYSFLTAVQGGSFILSSSGSQLIRLIPESSGKIHQHILPQGQGMLSGIGRKVSSLFGILSPSSDLTLSSVLWDRERSSFYSLTSSNISKWELDDSSEKHAYSWDINRALKENITDAIWGSESNYEAIKEGVNIRYLDLKQNCDGLVILAAAWHSADNPCLIYYSLITIEDNGCQMSDAVTVEVTQYNPPFQSEDLILCQLTVPNFSNQTAYLYNESAVYVCSTGTGKFSLPQEKIVFNAQGDSVLGAGACGGVPIIFSRNSGLVSITSRENVSILAEDLEGSLASSVAGPNSESMIFETTTKNETIAQEDKIKLLKAAFLQYCRKDLGHAQMVVDELFSSHSDLDSDSELDRAVTQISVDLMDDYPASDPRWAESVPEEAPGFSNTSLIILHQLEDKMKAHSFLMDFIHQVGLFGRLGSFPVRGTPMATRLLLCEHAEKLSAAIVLKNHHSRLSDLVNTAILIALNKREYEIPSNLTPADVFFREVSQVDTICECLLEHEEQVLRDAPMDSIEWAEVVINVNNILKDMLQAASHYRQNRNSLYRREESLEKEPEYVPWTATSGPGGIRTVIIRQHEIVLKVAYPQADSNLRNIVTEQLVALIDCFLDGYVSQLKSVDKSSNRERYDNLEMEYLQKRSDLLSPLLSLGQYLWAASLAEKYCDFDILVQMCEQTDNQSRLQRYMTQFADQNFSDFLFRWYLEKGKRGKLLSQPISQHGQLANFLQAHEHLSWLHEINSQELEKAHATLLGLANMETRYFAKKKTLLGLSKLAALASDFSEDMLQEKIEEMAEQERFLLHQETLPEQLLAEKQLNLSAMPVLTAPQLIGLYICEENRRANEYDFKKALDLLEYIDEEEDININDLKLEILCKALQRDNWSSSDGKDDPIEVSKDSIFVKILQKLLKDGIQLSEYLPEVKDLLQADQLGSLKSNPYFEFVLKANYEYYVQGQI
[2]
  binding: binds
